Results on three molecules are retold here after PMC5117777.

These are yes or no findings as the source states them, for the method shown. Binding seen in cells or lysates may run through a third protein. Here binding means that the protein was enriched with, or labelled near, the bait; the list need not be complete.

The target in this assay is TsUBE2L3-HA (Trichinella spiralis). As to the kind of experiment: affinity purification with mass spectrometry; anti-HA affinity matrix on pooled cytosolic and nuclear extracts of transgenic C2C12 myotubes after 24 h DOX induction; HA peptide elution; SDS-PAGE, silver staining, LC/MS/MS; two experiments merged.

B1: ARIH2 (mouse, endogenous) (enzyme, UniProt Q9Z1K6 1-492)
chain: MSVDMNSQGSDSNEEDYDPNCEEEEEEEEDPGDIEDYYVGVASDVEQQGADAFDPEEYQFTCLTYKESEGALHEHMTSLASVLKVSHSVAKLILVNFHWQVSEILDRYRSNSAQLLVEARVQPNPSKHVPTAHPPHHCAVCMQFVRKENLLSLACQHQFCRSCWEQHCSVLVKDGVGVGISCMAQDCPLRTPEDFVFPLLPNEELRDKYRRYLFRDYVESHFQLQLCPGADCPMVIRVQEPRARRVQCNRCSEVFCFKCRQMYHAPTDCATIRKWLTKCADDSETANYISAHTKDCPKCNICIEKNGGCNHMQCSKCKHDFCWMCLGDWKTHGSEYYECSRYKENPDIVNQSQQAQAREALKKYLFYFERWENHNKSLQLEAQTYERIHEKIQERVMNNLGTWIDWQYLQNAAKLLAKCRYTLQYTYPYAYYMESGPRKKLFEYQQAQLEAEIENLSWKVERADSYDRGDLENQMHIAEQRRRTLLKDFHDT
In the case of B1, the binding entry is reported as “binds”.

B2: TRAF7 (enzyme, UniProt Q922B6 1-594)
chain: MPPINTPRRSDSAISVRSLHSESSMSLRSTFSLPEEEEEPEPLVFAEQPSVKLCCQLCCSVFKDPVITTCGHTFCRRCALKSEKCPVDNAKLTVVVNNIAVAEQIGELFIHCRHGCHAAGTGKPGVFEVDPRGCPFTIKLSARKDHESSCDYRPVRCPNNPSCPPLLKMNLEAHLKECEHIKCPHSKYGCTFIGNQDTYETHLETCRFEGLKEFLQQTDDRFHEMHVALAQKDQEIAFLRSMLGKLSEKIDQLEKSLELKFDVLDENQSKLSEDLMEFRRDASMLNDELSHINARLNMGILGSYDPQQIFKCKGTFVGHQGPVWCLCVYSMGDLLFSGSSDKTIKVWDTCTTYKCQKTLEGHDGIVLALCIQGCKLYSGSADCTIIVWDIQNLQKVNTIRAHDNPVCTLVSSHNMLFSGSLKAIKVWDIVGTELKLKKELTGLNHWVRALVAAQSYLYSGSYQTIKIWDIRTLDCIHVLQTSGGSVYSIAVTNHHIVCGTYENLIHVWDIESKEQVRTLTGHVGTVYALAVISTPDQTKVFSASYDRSLRVWSMDNMICTQTLLRHQGSVTALAVSRGRLFSGAVDSTVKVWTC
In the case of B2, the binding result was “binds”.

B3: TRIM3 (enzyme, UniProt Q9R1R2 1-744)
chain: MAKREDSPGPEVQPMDKQFLVCSICLDRYRCPKVLPCLHTFCERCLQNYIPPQSLTLSCPVCRQTSILPEQGVSALQNNFFISSLMEAMQQAPEGAHDPEDPHPLSAVAGRPLSCPNHEGKTMEFYCEACETAMCGECRAGEHREHGTVLLRDVVEQHKAALQRQLEAVRGRLPQLSAAIALVGGISQQLQERKAEALAQISAAFEDLEQALQQRKQALVSDLESICGAKQKVLQTQLDTLRQGQEHIGSSCSFAEQALRLGSAPEVLLVRKHMRERLAALAAQAFPERPHENAQLELVLEVDGLRRSVLNLGALLTTSATAHETVATGEGLRQALVGQPASLTVTTKDKDGRLVRTGSAELCAEITGPDGVRLAVPVVDHKNGTYELVYTARTEGDLLLSVLLYGQPVRGSPFRVRALRPGDLPPSPDDVKRRVKSPGGPGSHVRQKAVRRPSSMYSTGGKRKDNPIEDELVFRVGSRGREKGEFTNLQGVSAASSGRIVVADSNNQCIQVFSNEGQFKFRFGVRGRSPGQLQRPTGVAVDTNGDIIVADYDNRWVSIFSPEGKFKTKIGAGRLMGPKGVAVDRNGHIIVVDNKSCCVFTFQPNGKLVGRFGGRGATDRHFAGPHFVAVNNKNEIVVTDFHNHSVKVYSADGEFLFKFGSHGEGNGQFNAPTGVAVDSNGNIIVADWGNSRIQVFDSSGSFLSYINTSAEPLYGPQGLALTSDGHVVVADAGNHCFKAYRYLQ
For B3, the binding entry was “binds”.
